From paper PMC6721605
These are yes or no findings as the source states them, for the method shown. In cells and extracts the contact can be indirect. Binding can be weak; no strength is given.

Molecular target: dynamin-like protein B (dlpB) of Dictyostelium discoideum (Dictyostelium discoideum (endogenous in AX2))
Assay: co-IP; anti-dlpB antibodies on Dynabeads protein G; lysate of non-synchronized (interphase) wild-type cells; lysis buffer 150 mM NaCl, 5 mM EGTA, 5 mM EDTA, 1% Triton X-100, 20 mM Tris-HCl pH 7.5; western blot with anti-dlpA and anti-dlpB

B1: dynamin-like protein A (dlpA) of Dictyostelium discoideum (protein, UniProt Q55F94 1-880)
chain: MSVFKKKDKSDDKKKKHDEETPQGTFQPASQSTSNTNLNSLASSVNNGASVGSTNGSTPNNSNGSTPTYNHNNSAEELEKQKKEEDEKRKKSELEAAAAVVAKKKEDEEKQRKEQVELERKRRDEEIRRTNAAAANAANKELNEQVEISSLEQMGKLDPSSTIHDMFSFFPNEVYNSYEKLQYFSRDLNTAVSHPEIVFVGPRSSGKSSLIEAFIGRALNIVGGGNIVGVGGSNANGCSKRVLYLQFTNNIDFEVPKVTIKKDNTIKEFDHDIIVSIEQLNENLAKRNQLTNDYIEEPIYVSIESRTTLNLTLIDSPGLLFDQSQAESNKIESIVSSLLRPSHRLIIAVESCSQDWKSMSMGQYLKKIDPELSRSTFVFTKFHHTVRGFSSTRDINKYLSGTVPDIKGFFVTLPNHQVRASYSEANRFQEKIYQAHKRDMHALEQLQYDKRYERTIGVAPLRRYILNIVWKSYQDTIPRILKHLRSKRQTAEATLNELQKQSSSLDSTKLRSIASNYTVTFLQITEKLLSGTSEGNPSANGQTLDEEKSQQGDCGEWVDAYKEAIYIDPEEWNIPYWSSKLYGGQQLERLMAEFKAVCDNSKISEVKMDDIATASGINKLNNIPNYAWAASDLTSLISRDTFVPLIEQLCERAMYIMKRLTDIADKVIDSRRKSRCIGSSPFGGNGLNNINSGGNNGININDRLSNTDMDSLDQYPFFTHHVKNLYYDFVHRAAKGCKEKCMDEFYSSRTIYWELTEHPDSSLPSIRNDHHETKTAVCQLATKLFDSIRQRITKNVLLKLYNFFLVPMQTDLWNEIQAQITCLSNEQLEQLFEVQATREQLKQEEKKQQQILEKYSQIDEQFLKAASLFCRPLSNPTPSA
In the case of B1, the binding is reported as “binds weakly”.
